Here are results for 1 substance from publication PMC12546133.

By UniProt entry, the sequences of proteins in these tests, tags left out.
UniProt P62898: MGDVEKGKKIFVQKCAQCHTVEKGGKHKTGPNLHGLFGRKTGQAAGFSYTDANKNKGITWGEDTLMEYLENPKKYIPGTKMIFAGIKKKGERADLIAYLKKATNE

Assay [1] deals with T1, apoptotic protease activating factor 1 (Apaf1) (rat (endogenous in H9c2)) (UniProt Q9EPV5).
T1 sequence: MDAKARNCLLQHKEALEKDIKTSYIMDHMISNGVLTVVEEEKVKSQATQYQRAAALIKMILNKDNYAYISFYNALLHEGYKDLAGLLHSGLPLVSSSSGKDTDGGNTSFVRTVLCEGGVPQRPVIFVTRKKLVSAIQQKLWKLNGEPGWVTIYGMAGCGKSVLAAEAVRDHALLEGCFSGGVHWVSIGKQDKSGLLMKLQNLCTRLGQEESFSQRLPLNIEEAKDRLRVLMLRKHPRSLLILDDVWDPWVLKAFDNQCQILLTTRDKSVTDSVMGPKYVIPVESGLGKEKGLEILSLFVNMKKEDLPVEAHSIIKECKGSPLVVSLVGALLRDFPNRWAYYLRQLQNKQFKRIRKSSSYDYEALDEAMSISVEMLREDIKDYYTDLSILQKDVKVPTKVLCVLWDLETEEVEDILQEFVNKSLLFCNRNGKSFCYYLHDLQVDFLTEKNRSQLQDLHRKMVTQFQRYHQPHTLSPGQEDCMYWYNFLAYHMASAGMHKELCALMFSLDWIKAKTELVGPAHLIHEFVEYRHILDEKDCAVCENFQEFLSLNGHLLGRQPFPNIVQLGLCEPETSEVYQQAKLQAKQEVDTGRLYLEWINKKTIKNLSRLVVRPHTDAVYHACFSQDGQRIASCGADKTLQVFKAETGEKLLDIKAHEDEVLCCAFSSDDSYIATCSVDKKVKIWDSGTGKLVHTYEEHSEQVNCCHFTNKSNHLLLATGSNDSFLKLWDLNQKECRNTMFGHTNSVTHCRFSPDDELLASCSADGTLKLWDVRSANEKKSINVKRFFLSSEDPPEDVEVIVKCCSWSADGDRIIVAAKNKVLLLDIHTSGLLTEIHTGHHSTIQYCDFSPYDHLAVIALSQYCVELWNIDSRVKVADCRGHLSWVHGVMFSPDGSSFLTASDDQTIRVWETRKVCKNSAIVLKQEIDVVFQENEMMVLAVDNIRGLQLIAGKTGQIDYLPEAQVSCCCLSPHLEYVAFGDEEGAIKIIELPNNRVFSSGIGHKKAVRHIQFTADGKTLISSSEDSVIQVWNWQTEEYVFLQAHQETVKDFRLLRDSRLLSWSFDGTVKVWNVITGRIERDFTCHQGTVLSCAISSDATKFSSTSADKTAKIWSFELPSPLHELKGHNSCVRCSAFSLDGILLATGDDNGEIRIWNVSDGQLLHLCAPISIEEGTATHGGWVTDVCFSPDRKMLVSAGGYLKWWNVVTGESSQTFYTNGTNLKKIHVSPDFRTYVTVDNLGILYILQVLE
Kind of assay: co-IP; H9c2 cell extracts; anti-Apaf1 or anti-Cycs antibody fixed on protein A/G magnetic beads, blots for Cycs and Apaf1; cells untreated, treated with L-NAME, with siRNA against Apaf1 or Cycs, with Apaf1 overexpression, with TQ.

Assay [2] has as its target T2, overexpressed rat Apaf1 (OE-Apaf1) (rat) (UniProt Q9EPV5).
T2 sequence: T1 sequence
The assay is described as above.

These are yes or no findings as the source states them, for the method shown. Binding seen in cells or lysates may run through a third protein. Some binding calls cover weakened binding; strength is not graded here.

“cytochrome c (Cycs) (from UniProt P62898 1-105)”: the binding entry in assay [1] and in assay [2] was “binds” in each case.
